# According to patent US12350135B2, “Absorbent article with odor control composition” (The Procter & Gamble Company, priority 2021, dated 2025):
# Some entries share one result that the patent states for a list of compounds.
# Assay: Surface tension of aqueous surfactant solutions with and without about 1% cyclodextrin (cyclodextrin compatibility)
# Assay type: physicochemical
# Details: in the presence of a typical cyclodextrin like hydroxypropyl betacyclodextrin and methylated beta-cyclodextrin
row,Compound,elevation in surface tension
1,dodecanolpoly(6)ethoxylate,> 10%
2,CCCCCCCCCCCCOS(=O)(=O)[O-].[Na+] [sodium dodecyl sulfate],> 10%
